Assay results as given in PMC7943015.
No constants are given. Whether binding was seen depends on the method and setting. Binding seen in cells or lysates may run through a third protein. Here binding means that the protein was enriched with, or labelled near, the bait; the list need not be complete.

B1: CAGL0I03916g (ortholog of S. cerevisiae ARF2) (protein, UniProt Q6FQS5 1-181)
chain: MGLFASKLFSNLFGNKEMRILMVGLDGAGKTTVLYKLKLGEVITTIPTIGFNVETVQYKNISFTVWDVGGQDRIRSLWRHYYRNTEGVIFVVDSNDRSRIGEAREVMQRMLNEDELRNAVWLVFANKQDLPEAMSAAEITEKLGLHSIRNRPWFIQATCATTGEGLYEGLEWLSNNLNNKE
B2: CAGL0A00979g (ortholog of S. cerevisiae RPL38) (protein, UniProt Q6FXW9 1-78)
chain: MAREVTDIKQFLELTRRNDVQSATVKINKKLNKNGKQFRQTKFKVRGSRHLYTLTVNDAGKAKKLIQSLPPTLKVNKL

Target: CgYps1 (C. glabrata (endogenous in derivatives of strain BG2))
Test: affinity purification with mass spectrometry; CgYps1 immunoprecipitated with anti-CgYps1 polyclonal antibody on rProtein A-Sepharose from precleared extracts (2 mg) of log-phase wt and Cgyps1-11Δ cells, 2-3 h at 4°C, duplicates; hits: at least two unique peptides, in both wt replicates, absent from both Cgyps1-11Δ samples

Binder | binding
B1 | binds
B2 | binds
